PubChem BioAssay AID1259425 – University of Nebraska Medical Center, 2018
The deposit covers about 14,000 reagents; shown is a random part of them. Further read-outs or replicates are left out here. Not given: the time to read-out.

Assay: 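Seek colon cancer weak points whose silencing resembles KSR1 loss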 (primary screen)
System: HCT116 human colon cancer cells
Reagent: siRNA pool against human genes, 50 nM siRNA
Measured: 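mRNA of six signature genes measured together by branched-DNA assay after 50 nM siRNA pool, blank removed, divided by geometric mean of two housekeeping genes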
Direction: BNIP3L mRNA: higher = more BNIP3L transcript after knockdown; NDRG1 mRNA: higher = more NDRG1 transcript after knockdown

Target gene	BNIP3L mRNA, set 1	NDRG1 mRNA, set 1
GLUD2	0.109	0.304
SPAG1	0.149	0.0954
DNAAF11	0.072	0.107
CDH18	0.118	0.166
LDB3	0.0921	0.216
CCR3	0.102	0.152
AIFM2	0.26	0.227
TIMM9	0.0715	0.123
MRPS11	0.0661	0.125
FBL	0.156	0.298
STK25	0.106	0.129
KRT33B	0.17	0.316
CD46	0.087	0.0848
ECHDC2	0.0725	0.223
PDYN	0.138	0.309
TRIAP1	0.171	0.331
SRSF1	0.348	0.926
PRSS8	0.159	0.586
RCAN1	0.0968	0.475
RFPL2	0.084	0.365
GMPPB	0.108	0.608
CEP97	0.153	0.253
RPAP2	0.168	0.985
S100A12	0.146	0.166
TXNDC5	0.0683	0.0418
IL18BP	0.101	0.0847
PUS1	0.116	0.276
ZRANB2	0.0942	0.117
RIT1	0.0642	0.169
THNSL2	0.235	0.73
CTSV	0.107	0.106
PCDHGA12	0.0707	0.174
KIF5C	0.0653	0.144
FAM110D	0.162	0.172
ACTL8	0.108	0.362
IKZF4	0.117	0.15
CAST	0.121	0.125
SLAMF6	0.192	0.139
SCN4B	0.102	0.479
PAICS	0.158	0.289
CHRDL2	0.143	0.151
GTF2IRD2	0.122	0.204
OGFRL1	0.122	0.102
CLEC1A	0.12	0.168
NHLH1	0.0913	0.0964
LATS1	0.0525	0.0231
GEMIN2	0.089	0.187
PPP2R3A	0.0408	0.0633
CACNA2D1	0.102	0.0945
FNDC3A	0.15	0.142

Part of the list above, showing only “NDRG1 mRNA, set 1”:
GLUD2	0.304
SPAG1	0.0954
